The list is a part of this screen's results and no random one: it is rich in T/C values a quarter to a half above the control, in often repeated tests (any T/C) and in doses without a T/C. Other doses and runs of a compound stand elsewhere. T/C is the treated group as % of the vehicle group. Some entries give survivors of the animals treated and no T/C: the source files T/C as zero there, which appears to mark a toxic dose or a test without result, not a measured value. Some survivor counts are full or nearly so, which does not show that the dose was tolerated: survival well below the control is almost never listed, so the zero probably covers shortened survival too. Counts of survivors are from the toxicity check (mostly the fifth day) where no day follows; animals may have died later. Schedules are NCI's codes, taken here to give the interval after Q, in days (D) or hours (H), and the number of doses after X. Some doses were run more than once; their values stand side by side, smallest first. Where survival is the endpoint, this PubChem deposit counts one and a half times the control or more as active, and values a quarter to a half above the control carry no call in these data; other NCI protocols may use other cut-offs. Some T/C values carry the count of animals alive at the toxicity check (mostly the fifth day); where none is given, no animal had died by that day.
Test system: P388 leukemia ip, CD2F1 mice, survival T/C
Assay: NCI In Vivo Anticancer Drug Screen. Data for tumor model P388 Leukemia (intraperitoneal) in CD2F1 (CDF1) mice
Details: T/C endpoint: median survival time, higher T/C = longer survival
[1] = dose: 60.0 mg/kg/injection, schedule: Q01DX005 (ip), vehicle: saline with Tween-80
[2] = dose: 120.0 mg/kg/injection, schedule: Q01DX005 (ip), vehicle: saline with Tween-80
[3] = dose: 25.0 mg/kg/injection, schedule: Q01DX005 (ip), vehicle: saline with Tween-80
[4] = dose: 50.0 mg/kg/injection, schedule: Q01DX005 (ip), vehicle: saline with Tween-80
[5] = dose: 100.0 mg/kg/injection, schedule: Q01DX005 (ip), vehicle: saline with Tween-80
[6] = dose: 200.0 mg/kg/injection, schedule: Q01DX005 (ip), vehicle: saline with Tween-80
[7] = dose: 240.0 mg/kg/injection, schedule: Q01DX005 (ip), vehicle: saline with Tween-80
[8] = dose: 12.5 mg/kg/injection, schedule: Q01DX009 (ip), vehicle: saline
[9] = dose: 50.0 mg/kg/injection, schedule: Q01DX009 (ip), vehicle: saline
[10] = dose: 100.0 mg/kg/injection, schedule: Q01DX009 (ip), vehicle: saline
[11] = dose: 200.0 mg/kg/injection, schedule: Q01DX009 (ip), vehicle: saline
[12] = dose: 200.0 mg/kg/injection, schedule: Q01DX009 (ip), vehicle: saline with Tween-80
[13] = dose: 200.0 mg/kg/injection, schedule: Q01DX005 (ip), vehicle: Klucel (hydroxypropylcellulose) (HPC)

With Cc1ccc(NC(=O)OCCOc2ccc(-c3ccccc3)cc2)c([N+](=O)[O-])c1 the survivor count (dose: 50.0 mg/kg/injection, schedule: Q01DX009 (ip), vehicle: DMSO) was 5 of 6, the survivor count (dose: 100.0 mg/kg/injection, schedule: Q01DX009 (ip), vehicle: DMSO) was 5 of 6 and the survivor count (dose: 200.0 mg/kg/injection, schedule: Q01DX009 (ip), vehicle: DMSO) was 3 of 6.

With [N-]=[N+]=N/C=C1\CCOC1=O the survivor count [1] was 0 of 6 and 1 of 6 and the survivor count [2] was 0 of 6.

CCN(CC)CC.[CH-]1CCCCC1.[CH-]1CCCCC1.[CH3-].[Cl-].[I-].[Sn+4] was tested, and the survivor count [3] was 1 of 6, the survivor count [4] was 0 of 6 and the survivor count [5] was 0 of 6. The survivor count [6] was 0 of 6.

N#Cc1c(N)[nH]c2ccc(Sc3ccccc3)cc12 was tested, and the T/C [1] was 136 [5 of 6 alive] and 145 % of control, the survivor count [2] was 1 of 6 and the survivor count [7] was 0 of 6.

O=C(O)c1cncc(C(=O)NCO)c1 was tested, and the survivor count [8] was 5 of 6, the survivor count (dose: 25.0 mg/kg/injection, schedule: Q01DX009 (ip), vehicle: saline) was 6 of 6 and the T/C [9] was 92, 94, 98, 99 % of control. The survivor count [9] was 6 of 6 and the T/C [10] was 87, 89, 94, 100, 128 % of control [5 of 6 alive].

For CCCCCC(CN(C)C)C(/C=C/c1ccccc1Cl)=N\O (stereo not given), the survivor count [11] was 2 of 6.

In the case of S=C1SCN(Cc2ccccc2)CN1Cc1ccccc1, the survivor count (dose: 400.0 mg/kg/injection, schedule: Q01DX009 (ip), vehicle: saline with Tween-80) is reported as 6 of 6.

In the case of C/C(=N\N)C1C(=O)c2ccccc2C1=O, the survivor count [8] is reported as 6 of 6, the survivor count [9] is reported as 6 of 6 and the survivor count [10] is reported as 6 of 6. For the same compound, the survivor count [11] was 4 of 6.

For COC(=O)c1ccc(SCCC(=O)CCl)cc1, the survivor count [12] was 2 of 6.

COc1c(OC(C)=O)c(OC(C)=O)cc2c1-c1ccc(SC)c(=O)cc1C(NC(C)=O)CC2 (stereo not given) was tested, and the T/C (dose: 1.25 mg/kg/injection, schedule: Q01DX009 (ip), vehicle: Klucel (hydroxypropylcellulose) (HPC)) was 138 % of control, the T/C (dose: 2.5 mg/kg/injection, schedule: Q01DX009 (ip), vehicle: Klucel (hydroxypropylcellulose) (HPC)) was 133 and 137 % of control and the T/C (dose: 5.0 mg/kg/injection, schedule: Q01DX009 (ip), vehicle: Klucel (hydroxypropylcellulose) (HPC)) was 149 % of control.

With CC(C)CC(NC(=O)C(Cc1c[nH]c2ccccc12)NC(=O)OC(C)(C)C)C(=O)NN (stereo not given) the T/C (dose: 200.0 mg/kg/injection, schedule: Q01DX009 (ip), vehicle: other) was 126 and 145 % of control and the survivor count (dose: 400.0 mg/kg/injection, schedule: Q01DX009 (ip), vehicle: other) was 4 of 6.

In the case of CCCCCCCCCCCCn1cc[n+](CC(=O)N(O)Cc2ccccc2)c1C, the survivor count [3] is reported as 0 of 5, the survivor count [4] is reported as 0 of 5 and the survivor count [5] is reported as 0 of 5.

For CC(=O)OCC1C(=O)OCC1C(=O)N1Cc2cc3ccccc3nc2C1 (stereo not given), the T/C (dose: 64.0 mg/kg/injection, schedule: Q01DX009 (ip), vehicle: saline with Tween-80) was 135 % of control.

With O=S1(=O)CCCO1 the survivor count (dose: 400.0 mg/kg/injection, schedule: Q04DX003 (ip), vehicle: saline) was 5 of 6.

O=c1oc2ccccc2c(O)c1C(c1ccc2c(c1)OCO2)c1c(O)c2ccccc2oc1=O was tested, and the survivor count [1] was 4 of 6 and 6 of 6, the survivor count [2] was 3 of 6 and the survivor count [7] was 0 of 6.

With Nc1ccccc1N=C(CC(=O)c1ccco1)C(F)(F)F the survivor count [8] was 6 of 6 and the survivor count [9] was 5 of 6.

With Nc1ccc2c(SCCCCCCCCSc3c4ccccc4nc4cc(N)ccc34)c3ccccc3nc2c1 the survivor count [7] was 4 of 6.

COc1cc(C(c2cc3c(cc2O)OCO3)N2CCOCC2)ccc1O (stereo not given) was tested, and the survivor count [7] was 0 of 6.

With CCC1(c2ccc(C)cc2)C(=O)NC(=S)NC1=O the survivor count [7] was 3 of 6.

For Cc1ccc(S(=O)(=O)N/N=C/c2cc([N+](=O)[O-])ccc2O)cc1, the survivor count (dose: 200.0 mg/kg/injection, schedule: Q01DX005 (ip), vehicle: distilled water + Tween-80) was 0 of 5.

In the case of C[n+]1c(-c2cccc(OCCCCCCCCOc3cccc(-c4c5cc(N)ccc5c5ccc(N)cc5[n+]4C)c3)c2)c2cc(N)ccc2c2ccc(N)cc21, the survivor count (dose: 3.0 mg/kg/injection, schedule: Q01DX009 (ip), vehicle: water) is reported as 5 of 6, the survivor count (dose: 3.12 mg/kg/injection, schedule: Q01DX009 (ip), vehicle: water) is reported as 6 of 6 and the survivor count (dose: 6.25 mg/kg/injection, schedule: Q01DX009 (ip), vehicle: water) is reported as 5 of 6. For the same compound, the survivor count (dose: 12.5 mg/kg/injection, schedule: Q01DX009 (ip), vehicle: water) was 0 of 6.

For CCCCCCC(/C=C/c1ccc(Cl)cc1)=N\O, the survivor count (dose: 50.0 mg/kg/injection, schedule: Q01DX009 (ip), vehicle: Klucel (hydroxypropylcellulose) (HPC)) was 6 of 6 and the survivor count (dose: 200.0 mg/kg/injection, schedule: Q01DX009 (ip), vehicle: Klucel (hydroxypropylcellulose) (HPC)) was 6 of 6.

In the case of CCOC(=O)C1CCCCC1NC1CCCCC1C(=O)OCC (stereo not given), the T/C (dose: 69.0 mg/kg/injection, schedule: Q01DX009 (ip), vehicle: saline with Tween-80) is reported as 125 % of control.

CCOc1cc2c(cc1C/C=C/c1cc(OC)c(OC)c(OC)c1)OCO2 was tested, and the survivor count [1] was 6 of 6, the survivor count [2] was 6 of 6 and the survivor count [7] was 6 of 6.

O=C1c2c(O)ccc(O)c2C(=O)c2c(NCCCO)ccc(NCCCO)c21 was tested, and the survivor count (dose: 160.0 mg/kg/injection, schedule: Q01DX009 (ip), vehicle: acid diluted with saline) was 6 of 6.

With CC1=CCCC1C1C=CCC1 (stereo not given) (tested in a mixture with another compound) the T/C (dose: 100.0 mg/kg/injection, schedule: Q01DX009 (ip), vehicle: saline with Tween-80) was 128 % of control [5 of 6 alive] and the survivor count [12] was 0 of 6.

In the case of Cc1ccc(-n2nc(C(O)C(O)C(O)CO)c3nc4cc(C)c(C)cc4nc32)cc1 (stereo not given), the survivor count [5] is reported as 3 of 6.

Cn1cnc([N+](=O)[O-])c1Sc1nc(N)nc2nc[nH]c12 was tested, and the T/C (dose: 16.5 mg/kg/injection, schedule: Q01DX009 (ip), vehicle: saline with Tween-80) was 127 % of control, the T/C (dose: 25.0 mg/kg/injection, schedule: Q01DX009 (ip), vehicle: saline sonified) was 136 % of control and the survivor count (dose: 37.5 mg/kg/injection, schedule: Q01DX009 (ip), vehicle: saline with Tween-80) was 6 of 6. For the same compound, the survivor count (dose: 100.0 mg/kg/injection, schedule: Q01DX009 (ip), vehicle: saline sonified) was 6 of 6, the survivor count (dose: 200.0 mg/kg/injection, schedule: Q04DX003 (ip), vehicle: Klucel (hydroxypropylcellulose) (HPC)) was 6 of 6 and the survivor count (dose: 400.0 mg/kg/injection, schedule: Q04DX003 (ip), vehicle: Klucel (hydroxypropylcellulose) (HPC)) was 6 of 6.

COC1=C(NC(C)=O)C(=O)c2nc(-c3nc(C(=O)O)c(C)c(-c4ccc(OC)c(OC)c4O)c3N)ccc2C1=O was tested, and the survivor count (dose: 200.0 mg/kg/injection, schedule: Q01DX009 (ip), vehicle: distilled water + Tween-80) was 5 of 6.

With CC(C)NC1CCC(Nc2ccnc3cc(Cl)ccc23)CC1 (stereo not given) the survivor count [13] was 0 of 6.

CCCCCC[N+]1(CC)CCCCC1 was tested, and the survivor count [9] was 4 of 6, the survivor count [10] was 0 of 6 and the survivor count [11] was 0 of 6.

For N#CC1=C(Nc2ccccc2Cl)SC(c2ccncc2)NC1=O (stereo not given), the T/C (dose: 60.0 mg/kg/injection, schedule: Q01DX005 (ip), vehicle: Klucel (hydroxypropylcellulose) (HPC)) was 126 % of control.

With CCCCC(CCCC)=NO the survivor count [6] was 5 of 5.

With O=C(O)CSc1ncccc1Nc1ccc([N+](=O)[O-])cn1 the survivor count [11] was 4 of 6.

O=C1OCC2CC3C4C=CC(C4)C3C12 (stereo not given) was tested, and the survivor count [13] was 0 of 6.

For CN(C)c1ccc(C(c2cc3c(cc2O)OCO3)N2CCCCC2)cc1 (stereo not given), the survivor count [7] was 3 of 6.

CCOC(=O)C(Cc1c[nH]c2ccccc12)NC(=O)[C@@]1(O)[C@H](O)[C@]2(CC)C=CCN3CC[C@@]4(c5cc([C@@]6(C(=O)OC)C[C@@H]7CN(CCc8c6[nH]c6ccccc86)C[C@](O)(CC)C7)c(OC)cc5N(C)[C@@H]14)[C@@H]32 (stereo not given in full) was tested, and the T/C (dose: 16.0 mg/kg/injection, schedule: Q01DX001 (ip), vehicle: saline, evaluated on day 20) was 133 % of control and the T/C (dose: 16.0 mg/kg/injection, schedule: Q01DX001 (ip), vehicle: saline, evaluated on day 30) was 134 % of control.

Source: PubChem BioAssay AID330 (DTP/NCI, 2004)
